Measurements as given in PubChem BioAssay AID493014 (National Center for Advancing Translational Sciences (NCATS), 2011).
The list shows a part of the results. Shown are side measurements of this screen, not its main read-out; they come without a call. Most of these compounds were active or inconclusive in the main read-out, so they are no random draw. The note in brackets gives the kind of curve behind each potency; many fits are weak.

Assay: qHTS Assay to Find Inhibitors of Chronic Active B-Cell Receptor Signaling
Conditions: ABC-DLBCL IkBa-CBG/CBR reporter, luminescence ratio (green luciferase fused to IkBa over red control in TMD8 lymphoma cells), 4 h
Excerpt: NIH Molecular Libraries Probe Production Network [MLPCN] NIH Chemical Genomics Center [NCGC] MLPCN Grant: 1 R03 DA031086-01A1 PI Name: Dr. R. Eric Davis NCGC Assay Overview: Diffuse large B-cell lymphoma (DLBCL) is the most common category of non-Hodgkin lymphoma, with ~20,000 new cases per year in the United States. DLBCL should be regarded as a collection of different neoplasms. Microarray gene expression analysis has defined two principal types of DLBCL, named for their similarity to normal B cell stages or activation states: a germinal center B-cell (GCB) type, and an activated B-cell (ABC) type. In ABC-DLBCL, a constitutive high-level activity of the NF-kappaB family of transcription factors has been observed (1) and NF-kappaB target genes are more highly expressed in ABC primary tumors than in GCB tumors. Functional studies have shown a constitutive high-level activity of the IkappaB (inhibitor of kappa-B) kinase (IKK) complex. […] Further analysis of DLBCL primary tumors for NF-kappaB target gene expression imply that although CARD11 is required for constitutive IKK activity in all ABC-DLBCL lines, mutations in CARD11 may be the root cause of IKK activation only in lines or tumors with such mutations. In other words, CARD11 mutations may explain NF-kappaB activation in only 10% of ABC-DLBCL cases. […] This process has been termed 'chronic active BCR signaling' (CABS). The goal of this screen is to find small-molecule inhibitors of the CABS pathway found in ABC-DLBCL lines using a cell-based assay that measures IkappaBalpa stability, which has already been extensively validated in the OCI-Ly3 line (PubChem AID:445; REF: 4). […] The assay uses green (CBG68) and red (CBR) emitting beetle luciferases [Chroma-GloTM developed by Promega Corp.] where the green luciferase is fused to IkappaBalpha and the red luciferase is present in its native state. Both luciferase genes are stably present in the TMD8 human ABC DLBCL cell line, but their expression is under the control of tetracycline-inducible promoters. Following the addition of doxycycline to induce expression of the luciferases, the green luminescence in control cultures rises only slowly because the CBG fusion partner IkappaBalpha is targeted by IKK activity for rapid degradation. In contrast, green luminescence rises rapidly in the presence of proteasome inhibitors or IKK inhibitors. The rise in red luminescence of CBR is not affected by proteasome or IKK inhibitors, and serves as normalization for cell number and nonspecific effects. Compounds were screened as a concentration-titration series that ranged from 46 uM to 3 nM.
NCGC Assay Protocol Summary: Cells were seeded in 1536-well plates at 5000 cells/4uL in IMDM medium containing 0.5% FBS, w/o phenol red, 1% penicillin/streptomycin. Then, 23 nL of compounds or DMSO were delivered to each well using a pin tool. One uL 20ng/ml doxycycline was then dispensed into white solid 1536-well plates and the plates were incubated at 37C/5% C02 in a cell incubator for 4 hrs. Then 4 uL luminescent substrate mix (in-house prepared: 150 mM Tris-Cl, pH 7.6, 3 mM MgCl2, 1% Triton X-100, 5 mM DTT, 0.2 mM CoA, 0.15 mM ATP, 5 mM D-luciferin, final concentrations) was added to each well. The plate was incubated at r.t. for 10-15 min. The plates were measured on a ViewLux plate reader for green luminescence (540/20 nm filter) and red luminescence (618/8 nm filter). The green and red luminescent signals were corrected for red and green luminescence filter overlap using previously determined filter calibration constants (determined using the procedure outlined in the Promega Technical Manual; REF 4). The %Activity was determined from the ratio of corrected green/red luminescent values. MG132 were used as control. […] Red luminescent %Activity was normalized to the difference between red luminesence in basal cells (0%Activity) and zero luminescence (-100% Activity). […]

[1] = measured here: CBR red luminescence, cell number
[2] = measured here: IkBa-CBG green luminescence

CON(c1nc(Cl)nc(N(C)C)n1)S(=O)(=O)c1ccccc1Cl
AC50 [1]: 35.5 µM [falling, single point]

COc1ccc([N+](=O)[O-])cc1N(CC(O)Cn1nnc2ccccc21)S(=O)(=O)c1ccc(C)cc1 (stereo unspecified)
AC50 [1]: 35.5 µM [falling, single point]

CCn1c(Cc2ccccc2)nnc1SCC(=O)Nc1nccs1
AC50 [1]: 7.31 µM [falling, full curve]

COC(=O)c1ccccc1SC1CC(=O)N(c2cccc(C)c2)C1=O (stereo unspecified)
AC50 [1]: 23.1 µM [falling, single point]

COc1cc(C(=O)NNC2=CC(=O)CC(C)(C)C2)cc(OC)c1OC
AC50 [1]: 29.1 µM [rising, single point] | AC50 [2]: 20.6 µM [falling, single point]

COc1ccc(/C=N/c2nc3ccccc3n2CCN2CCCCC2)cc1OC
AC50 [1]: 13 µM [rising, partial curve, poor fit]

CC(C)C[C@H]1CN=C(Nc2ccccc2)N1CCCC1CCCC1
AC50 [1]: 35.5 µM [falling, single point]

CN(C)Cc1c(-c2ccc(Cl)cc2)nc2ccccn12
AC50 [1]: 5.62 µM [rising, single point]

COC(=O)COc1cc2ccccc2cc1C(=O)Nc1ccccc1
AC50 [1]: 1.78 µM [rising, partial curve, poor fit]

C=CCNC(=O)NC(=O)Cn1c(=O)c2c(ncn2CC)n(Cc2ccccc2)c1=O
AC50 [1]: 15.8 µM [rising, single point]

Cc1nnc(NC(=O)c2ccc3ccccc3n2)s1
AC50 [1]: 35.5 µM [falling, single point] | AC50 [2]: 15.8 µM [falling, partial curve, poor fit]

O=C(Nc1nc(-c2ccccn2)cs1)C1CCCC1
AC50 [1]: 11.2 µM [falling, partial curve]

CCOC(=O)C1=C(C)NC2=C(C(=O)CC(C)(C)C2)C1c1ccsc1 (stereo unspecified)
AC50 [1]: 0.731 µM [falling, partial curve, poor fit]

CC(C)c1ccc(-c2csc(NC(=O)c3cccs3)c2C(=O)O)cc1
AC50 [1]: 14.1 µM [falling, single point]

NC(=O)c1ccccc1NC(=O)Nc1cccc2ccccc12
AC50 [1]: 1.58 µM [falling, full curve]

CN(C)c1ccc(/C=N/OC(=O)Nc2ccccc2)cc1
AC50 [1]: 7.08 µM [falling, partial curve]

Cc1cc(C)cc(N(CC(=O)Nc2cccc(C)n2)S(=O)(=O)c2c(C)noc2C)c1
AC50 [1]: 20.6 µM [falling, single point]

CC1CCN(c2nc3c(c(=O)[nH]c(=O)n3C)n2Cc2ccccc2)CC1
AC50 [1]: 23.1 µM [falling, partial curve, poor fit]

Clc1cccc(-c2nnc(SCc3nc4ccccc4[nH]3)n2Cc2ccco2)c1
AC50 [1]: 22.4 µM [falling, single point]

COc1ccc(-c2cc(=O)n(-c3ccc([N+](=O)[O-])cc3)[nH]2)cc1
AC50 [1]: 0.517 µM [rising, full curve]

COc1ccc(NC(=O)NCc2ccco2)c(OC)c1
AC50 [1]: 35.5 µM [falling, single point]

Fc1ccc(NC(=S)N2CCCN(c3ccc(C(F)(F)F)cn3)CC2)c(F)c1
AC50 [1]: 12.6 µM [falling, partial curve, poor fit]

O=C(CCC1CCCCC1)Nc1ccccc1O
AC50 [1]: 2.31 µM [falling, full curve, poor fit]

Cc1cc(C(=O)N/N=C/C=C/c2ccccc2[N+](=O)[O-])c(C)o1
AC50 [1]: 14.1 µM [falling, single point]

Cc1ccc(SCc2nc(-c3ccccn3)no2)cc1
AC50 [1]: 32.6 µM [falling, single point]

CCCNC(=O)c1ccc(S(=O)(=O)c2ccc(OC)cc2)c([N+](=O)[O-])c1
AC50 [1]: 0.562 µM [falling, full curve, poor fit]

Cc1cccn2c(=O)nc(SCC(=O)N3CCCCC3)nc12
AC50 [1]: 3.26 µM [rising, partial curve, poor fit]

CCCc1c(C(=O)Nc2ccc(C(F)(F)F)cc2)cnn1-c1ccccc1
AC50 [1]: 7.94 µM [rising, partial curve]

O=C1CSCC(=O)N1Cc1ccc(Cl)c(Cl)c1
AC50 [1]: 20 µM [rising, single point]

COCCn1c(SCC(=O)Nc2ccc3[nH]c(=O)[nH]c3c2)nc2ccccc2c1=O
AC50 [1]: 22.4 µM [falling, single point]

CC(=O)N/C(=C\c1cccc([N+](=O)[O-])c1)C(=O)NC1CCCCC1
AC50 [1]: 11.6 µM [rising, partial curve, poor fit]

O=C(Nc1ccc(F)cc1F)c1ccc2c(c1)OCCO2
AC50 [1]: 8.91 µM [falling, partial curve]

CCc1ccc(OCC(=O)Nc2ccc(S(=O)(=O)N3CCCC3)cc2)c(Br)c1
AC50 [1]: 0.082 µM [rising, full curve, poor fit]

O=C1/C(=C/c2cccs2)N=C(c2cccs2)N1Nc1ccccc1
AC50 [1]: 13 µM [rising, partial curve, poor fit]

O=C(Nc1ccc2nc(-c3ccco3)c(-c3ccco3)nc2c1)N1CCN(c2ccccn2)CC1
AC50 [1]: 14.6 µM [falling, partial curve, poor fit]

O=S(=O)(NC1CCCC1)c1ccc(S(=O)(=O)N2CCc3ccccc32)cc1
AC50 [1]: 0.731 µM [falling, partial curve, poor fit]

O=C(NC(NC1CCS(=O)(=O)C1)C(=O)c1cccs1)c1ccccc1 (stereo unspecified)
AC50 [1]: 6.51 µM [falling, single point]

COc1cccc(N(CC(=O)NC(C)c2ccccc2)S(C)(=O)=O)c1 (stereo unspecified)
AC50 [1]: 0.794 µM [rising, full curve, poor fit]

O=C(O)CCCC(=O)Nc1nc(-c2ccc(F)cc2)cs1
AC50 [1]: 0.206 µM [falling, full curve]

COCc1nnc(NC(=O)CCC2CCCCC2)s1
AC50 [1]: 16.4 µM [rising, partial curve, poor fit]

Cc1ccc(CNC(=O)c2cc(=O)c3ccccc3o2)cc1
AC50 [1]: 0.316 µM [rising, full curve, poor fit]

Cc1ccc(NC(=O)CSc2nc3[nH]ncc3c(=O)[nH]2)cc1
AC50 [1]: 7.08 µM [falling, partial curve, poor fit]

CN1C(=O)NC(c2ccccc2)C2=C1CN(c1cccc(C(F)(F)F)c1)C2=O (stereo unspecified)
AC50 [1]: 35.5 µM [falling, single point]

O=C(NNS(=O)(=O)c1ccc([N+](=O)[O-])cc1)C(=O)Nc1cccc(C(=O)O)c1
AC50 [1]: 12.6 µM [falling, partial curve, poor fit]

C=CCOc1nc2c(c(=O)n(C)c(=O)n2C)n1C
AC50 [1]: 6.51 µM [falling, single point]

Cc1ccc(-n2c(O)c(/C=N/Nc3ccc(S(=O)(=O)N4CCOCC4)cc3[N+](=O)[O-])c3ccccc3c2=O)c(C)c1
AC50 [1]: 29.1 µM [falling, single point]

Cn1c(N)c(C(=O)COC(=O)COc2ccc(C#N)cc2)c(=O)n(C)c1=O
AC50 [1]: 0.794 µM [falling, partial curve]

CCOC(=O)N/C(N)=N/c1nc2ccccc2s1
AC50 [1]: 13 µM [falling, partial curve]

Oc1oc(-c2ccccc2)nc1/C=N/c1nccs1
AC50 [1]: 16.4 µM [falling, partial curve]

O=C(c1ccco1)N1CCN(C(=O)N2c3ccccc3Sc3ccccc32)CC1
AC50 [1]: 6.51 µM [rising, partial curve] | AC50 [2]: 5.17 µM [falling, partial curve]

COc1ccc(NC(=O)c2cccc(S(=O)(=O)N(C)c3ccccc3)c2)cn1
AC50 [1]: 32.6 µM [falling, partial curve, poor fit]

COc1ccc(OC)c(NC(=O)COC(=O)c2c3c(nc4ccccc24)CCCC3)c1
AC50 [1]: 23.1 µM [falling, partial curve, poor fit]

COc1ccc(CCCC(=O)Nc2ccc(F)cc2)cc1
AC50 [1]: 29.1 µM [falling, partial curve, poor fit]

N#Cc1cc(-c2ccccc2)nn1-c1ccccc1
AC50 [1]: 11.6 µM [rising, partial curve]

COc1ccccc1-n1cnnc1SCC(=O)Nc1cc(C)on1
AC50 [1]: 1 µM [falling, partial curve, poor fit]

COc1ccc(-c2nc(CN3CCC(C(=O)N4CCc5ccccc54)CC3)c(C)o2)cc1OC
AC50 [1]: 29.1 µM [falling, single point]

O=C(CSc1nnc(NC(=O)C2CCC2)s1)Nc1ccccc1Br
AC50 [1]: 1.12 µM [rising, full curve, poor fit]

Cc1ccc(NC(=S)NCc2ccccc2Cl)c(C)c1
AC50 [1]: 9.2 µM [rising, partial curve]

CCNc1nc(C23CC4CC(CC(C4)C2)C3)cs1
AC50 [1]: 14.1 µM [rising, single point]

CCOC(=O)[C@H]1[C@H]2COc3ccc(Cl)cc3[C@@H]2N2C(=O)c3cc(Br)ccc3NC(=O)[C@@]12C
AC50 [1]: 29.1 µM [falling, single point]

COc1ccc(-c2csc(N(CCCN(C)C)C(=O)c3ccccc3F)n2)cc1
AC50 [1]: 15.8 µM [falling, single point]

COC(=O)CNS(=O)(=O)c1ccc(Cc2ccc(S(=O)(=O)NCC(=O)OC)cc2)cc1
AC50 [1]: 0.316 µM [falling, partial curve, poor fit]

COc1ccc(Cn2c(O)c(C=Nc3ccc(O)cc3)c3ccccc3c2=O)cc1
AC50 [1]: 25.9 µM [falling, partial curve, poor fit]
